Data published in PMC7763487 (2020).

Protein sequences, listed by entry. Tags and fused reporters are not part of them. Lines headed by an entry give the natural chain unless they say otherwise; changes in a name come on top.
UniProt Q3URK3: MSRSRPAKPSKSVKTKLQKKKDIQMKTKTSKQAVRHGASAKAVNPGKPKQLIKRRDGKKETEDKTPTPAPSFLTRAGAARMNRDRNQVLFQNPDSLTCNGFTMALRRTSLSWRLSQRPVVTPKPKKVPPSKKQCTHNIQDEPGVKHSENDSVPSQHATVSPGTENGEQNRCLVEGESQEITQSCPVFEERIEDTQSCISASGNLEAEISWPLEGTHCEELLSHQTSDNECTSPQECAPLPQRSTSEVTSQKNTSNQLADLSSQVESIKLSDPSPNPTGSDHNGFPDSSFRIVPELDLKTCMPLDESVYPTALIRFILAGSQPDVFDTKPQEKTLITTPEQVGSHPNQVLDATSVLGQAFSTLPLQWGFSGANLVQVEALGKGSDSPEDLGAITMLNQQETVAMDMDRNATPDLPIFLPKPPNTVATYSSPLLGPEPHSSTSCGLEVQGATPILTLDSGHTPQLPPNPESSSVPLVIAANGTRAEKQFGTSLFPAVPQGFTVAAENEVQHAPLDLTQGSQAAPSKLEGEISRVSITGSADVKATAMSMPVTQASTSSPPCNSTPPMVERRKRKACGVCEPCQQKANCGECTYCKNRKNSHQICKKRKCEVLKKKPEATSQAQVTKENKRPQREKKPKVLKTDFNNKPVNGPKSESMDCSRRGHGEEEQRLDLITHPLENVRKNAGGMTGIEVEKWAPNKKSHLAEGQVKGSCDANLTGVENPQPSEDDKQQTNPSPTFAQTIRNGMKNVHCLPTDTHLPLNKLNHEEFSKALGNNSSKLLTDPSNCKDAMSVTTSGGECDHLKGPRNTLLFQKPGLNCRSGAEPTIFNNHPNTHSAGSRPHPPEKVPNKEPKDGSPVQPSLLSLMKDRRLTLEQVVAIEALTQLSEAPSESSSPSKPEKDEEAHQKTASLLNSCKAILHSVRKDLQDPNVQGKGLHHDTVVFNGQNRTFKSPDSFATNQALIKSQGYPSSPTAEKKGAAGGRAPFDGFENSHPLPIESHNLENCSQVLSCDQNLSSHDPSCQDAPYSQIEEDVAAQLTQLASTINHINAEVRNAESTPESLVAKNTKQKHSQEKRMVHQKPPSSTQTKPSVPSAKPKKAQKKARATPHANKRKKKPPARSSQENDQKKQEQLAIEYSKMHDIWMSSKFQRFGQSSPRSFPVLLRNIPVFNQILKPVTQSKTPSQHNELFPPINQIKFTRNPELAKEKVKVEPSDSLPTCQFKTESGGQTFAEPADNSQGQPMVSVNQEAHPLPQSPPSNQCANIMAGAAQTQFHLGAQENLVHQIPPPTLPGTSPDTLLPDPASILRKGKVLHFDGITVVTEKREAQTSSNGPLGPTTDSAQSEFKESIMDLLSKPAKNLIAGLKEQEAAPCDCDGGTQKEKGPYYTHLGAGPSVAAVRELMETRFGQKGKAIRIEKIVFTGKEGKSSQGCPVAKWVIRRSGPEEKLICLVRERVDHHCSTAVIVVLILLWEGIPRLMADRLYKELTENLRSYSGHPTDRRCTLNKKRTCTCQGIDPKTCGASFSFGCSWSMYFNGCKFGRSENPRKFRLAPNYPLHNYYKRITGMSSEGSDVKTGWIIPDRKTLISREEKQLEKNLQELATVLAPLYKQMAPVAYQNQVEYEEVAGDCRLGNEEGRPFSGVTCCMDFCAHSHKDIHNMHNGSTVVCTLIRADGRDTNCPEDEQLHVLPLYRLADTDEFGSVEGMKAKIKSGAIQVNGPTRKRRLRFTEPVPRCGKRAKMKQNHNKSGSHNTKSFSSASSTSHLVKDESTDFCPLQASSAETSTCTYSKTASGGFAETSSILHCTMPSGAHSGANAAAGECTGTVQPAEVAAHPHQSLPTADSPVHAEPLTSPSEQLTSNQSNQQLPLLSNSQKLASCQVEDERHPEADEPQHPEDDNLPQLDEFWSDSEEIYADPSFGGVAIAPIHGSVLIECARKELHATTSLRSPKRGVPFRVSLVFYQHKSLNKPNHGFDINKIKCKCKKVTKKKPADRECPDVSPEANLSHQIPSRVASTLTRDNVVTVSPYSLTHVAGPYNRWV

Legend:
[1] = biological target: MBP-TET1 1–120, proline to alanine mutant within residues 109–120 (mouse) (UniProt Q3URK3); test: pull-down; MBP-tagged constructs co-expressed with NANOG constructs in E. coli; bacterial extract (25 mM Tris–HCl pH 8.0, 200 mM NaCl) on amylose resin, one wash, elution with 10 mM maltose, immunoblot of the eluate
[2] = biological target: MBP-TET1 1–120, arginine to alanine mutant within residues 109–120 (mouse) (UniProt Q3URK3); test: as above
[3] = biological target: MBP-TET1 1–120, serine to alanine mutant within residues 109–120 (mouse) (UniProt Q3URK3); test: as above
[4] = biological target: MBP-TET1 1–120, glutamine to alanine mutant within residues 109–120 (mouse) (UniProt Q3URK3); test: as above
[5] = biological target: MBP-TET1 1–120, valine to alanine mutant within residues 109–120 (mouse) (UniProt Q3URK3); test: as above
[6] = biological target: (Flag)3-TET1(734–1169), leucine to alanine mutant within residues 1156–1169 (mouse) (UniProt Q3URK3); test: co-IP; (Flag)3-TET1 constructs and (HA)3-NANOG constructs expressed together in E14/T ESCs; Benzonase-treated nuclear protein extracts (350 mM KCl); TET1 immunoprecipitated by its Flag tag, immunoblot; for TET1(734–1169) also after phosphatase treatment of the extracts
[7] = biological target: (Flag)3-TET1(734–1169), isoleucine to alanine mutant within residues 1156–1169 (mouse) (UniProt Q3URK3); test: as above
[8] = biological target: (Flag)3-TET1(734–1169), proline to alanine mutant within residues 1156–1169 (mouse) (UniProt Q3URK3); test: as above
[9] = biological target: (Flag)3-TET1(1–1547) Δ1+2, serine to alanine mutant within residues 1522–1547 (mouse) (UniProt Q3URK3); test: as above

binding [1]: binds
binding [2]: binds
binding [3]: binds
binding [4]: binds
binding [5]: binds
B1: (His)6-NANOG (protein, UniProt Q80Z64 1-305)
chain: MSVGLPGPHSLPSSEEASNSGNASSMPAVFHPENYSCLQGSATEMLCTEAASPRPSSEDLPLQGSPDSSTSPKQKLSSPEADKGPEEEENKVLARKQKMRTVFSQAQLCALKDRFQKQKYLSLQQMQELSSILNLSYKQVKTWFQNQRMKCKRWQKNQWLKTSNGLIQKGSAPVEYPSIHCSYPQGYLVNASGSLSMWGSQTWTNPTWSSQTWTNPTWNNQTWTNPTWSSQAWTAQSWNGQPWNAAPLHNFGEDFLQPYVQLQQNFSASDLEVNLEATRESHAHFSTPQALELFLNYSVTPPGEI

binding [6]: binds
binding [7]: binds
binding [8]: binds
binding [9]: binds
B2: (HA)3-NANOG (protein, UniProt Q80Z64 1-305)
chain: B1 chain

Results are given in words; binding and its absence hold for the method and conditions named. In cells and extracts the contact can be indirect. Binding can be weak; no strength is given. Sequences can lack the tags named with a protein. One block for each binder: values may come before it.
